Assay results published in the supplement of paper PMC12819154, “High-throughput peptide-centric local stability assay extends protein–ligand identification to membrane proteins, tissues and bacteria” (Nature Structural & Molecular Biology, 2025).
This is one part of the list. Most values lie at the level of the controls, where differences are scatter.

Protein sequences, listed by entry. Tags and fused reporters are not part of them. Lines headed by an entry give the natural chain unless they say otherwise; changes in a name come on top.
UniProt Q7Z4H8: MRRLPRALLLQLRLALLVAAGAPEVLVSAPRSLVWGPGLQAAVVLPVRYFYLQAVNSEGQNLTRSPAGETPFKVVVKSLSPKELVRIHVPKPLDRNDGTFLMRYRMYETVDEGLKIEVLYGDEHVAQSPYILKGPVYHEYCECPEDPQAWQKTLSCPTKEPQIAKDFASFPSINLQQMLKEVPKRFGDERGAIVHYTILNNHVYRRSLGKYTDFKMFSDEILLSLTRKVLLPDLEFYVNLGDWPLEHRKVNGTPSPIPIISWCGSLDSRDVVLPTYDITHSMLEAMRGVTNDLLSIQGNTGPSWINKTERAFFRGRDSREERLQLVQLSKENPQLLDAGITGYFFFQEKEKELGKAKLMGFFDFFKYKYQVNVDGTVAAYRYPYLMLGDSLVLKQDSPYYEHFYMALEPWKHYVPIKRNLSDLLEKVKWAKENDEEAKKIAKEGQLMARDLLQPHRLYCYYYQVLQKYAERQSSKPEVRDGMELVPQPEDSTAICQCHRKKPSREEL
UniProt Q6ZN17: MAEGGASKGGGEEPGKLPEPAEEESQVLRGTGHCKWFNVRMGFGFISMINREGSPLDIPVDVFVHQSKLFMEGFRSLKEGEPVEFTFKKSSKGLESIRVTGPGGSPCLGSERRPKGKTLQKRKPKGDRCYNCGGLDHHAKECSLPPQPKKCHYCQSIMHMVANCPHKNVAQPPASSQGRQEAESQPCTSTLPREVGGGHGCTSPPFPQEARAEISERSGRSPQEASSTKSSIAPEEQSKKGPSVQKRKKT
UniProt Q76N32: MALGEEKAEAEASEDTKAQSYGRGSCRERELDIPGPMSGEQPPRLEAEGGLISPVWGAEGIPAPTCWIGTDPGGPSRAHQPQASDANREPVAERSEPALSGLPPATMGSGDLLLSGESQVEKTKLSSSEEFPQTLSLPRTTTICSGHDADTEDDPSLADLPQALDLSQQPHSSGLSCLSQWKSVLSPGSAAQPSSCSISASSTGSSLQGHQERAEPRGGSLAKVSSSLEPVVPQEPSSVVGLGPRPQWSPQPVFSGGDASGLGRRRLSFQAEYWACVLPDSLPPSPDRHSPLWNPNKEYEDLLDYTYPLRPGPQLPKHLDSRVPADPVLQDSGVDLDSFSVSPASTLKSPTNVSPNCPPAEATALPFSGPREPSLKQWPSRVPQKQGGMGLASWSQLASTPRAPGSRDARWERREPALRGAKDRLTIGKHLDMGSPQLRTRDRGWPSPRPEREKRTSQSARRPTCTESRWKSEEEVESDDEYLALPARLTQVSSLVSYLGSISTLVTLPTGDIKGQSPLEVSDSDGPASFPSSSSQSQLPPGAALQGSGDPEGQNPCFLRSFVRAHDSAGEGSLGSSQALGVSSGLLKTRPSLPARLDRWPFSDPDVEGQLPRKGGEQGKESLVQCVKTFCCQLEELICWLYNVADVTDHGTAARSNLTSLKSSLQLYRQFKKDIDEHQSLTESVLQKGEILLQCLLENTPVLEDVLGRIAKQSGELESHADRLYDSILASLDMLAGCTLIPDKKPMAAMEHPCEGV
UniProt Q7L2K0: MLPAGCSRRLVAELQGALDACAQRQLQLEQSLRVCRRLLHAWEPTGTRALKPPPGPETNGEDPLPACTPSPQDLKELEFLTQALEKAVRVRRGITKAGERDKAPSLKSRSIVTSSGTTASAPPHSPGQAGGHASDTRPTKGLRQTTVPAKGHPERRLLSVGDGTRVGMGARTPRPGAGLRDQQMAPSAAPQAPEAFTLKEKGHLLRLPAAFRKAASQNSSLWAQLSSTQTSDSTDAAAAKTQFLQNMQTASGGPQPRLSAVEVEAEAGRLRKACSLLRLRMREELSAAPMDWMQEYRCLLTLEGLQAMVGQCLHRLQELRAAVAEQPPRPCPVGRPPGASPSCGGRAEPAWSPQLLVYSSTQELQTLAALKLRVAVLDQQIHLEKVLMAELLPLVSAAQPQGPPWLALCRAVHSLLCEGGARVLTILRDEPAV
UniProt Q7Z4V5: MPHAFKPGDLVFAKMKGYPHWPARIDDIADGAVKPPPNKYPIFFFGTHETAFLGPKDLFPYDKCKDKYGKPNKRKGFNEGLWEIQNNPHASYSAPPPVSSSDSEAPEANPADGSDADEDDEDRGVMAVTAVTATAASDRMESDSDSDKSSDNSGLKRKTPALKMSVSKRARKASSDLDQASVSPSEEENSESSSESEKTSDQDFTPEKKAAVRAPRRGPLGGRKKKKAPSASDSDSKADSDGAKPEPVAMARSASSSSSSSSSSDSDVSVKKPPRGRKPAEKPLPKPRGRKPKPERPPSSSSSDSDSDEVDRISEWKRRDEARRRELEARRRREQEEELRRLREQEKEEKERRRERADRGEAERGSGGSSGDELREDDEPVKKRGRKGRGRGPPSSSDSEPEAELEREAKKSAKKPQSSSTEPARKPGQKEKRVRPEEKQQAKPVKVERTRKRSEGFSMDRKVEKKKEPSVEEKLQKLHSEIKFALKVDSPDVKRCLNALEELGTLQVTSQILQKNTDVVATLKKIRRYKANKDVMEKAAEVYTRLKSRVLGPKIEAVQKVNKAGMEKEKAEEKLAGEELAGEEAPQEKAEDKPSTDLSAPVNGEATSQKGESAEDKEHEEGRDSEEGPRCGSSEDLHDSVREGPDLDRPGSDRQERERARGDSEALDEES
UniProt Q7Z628: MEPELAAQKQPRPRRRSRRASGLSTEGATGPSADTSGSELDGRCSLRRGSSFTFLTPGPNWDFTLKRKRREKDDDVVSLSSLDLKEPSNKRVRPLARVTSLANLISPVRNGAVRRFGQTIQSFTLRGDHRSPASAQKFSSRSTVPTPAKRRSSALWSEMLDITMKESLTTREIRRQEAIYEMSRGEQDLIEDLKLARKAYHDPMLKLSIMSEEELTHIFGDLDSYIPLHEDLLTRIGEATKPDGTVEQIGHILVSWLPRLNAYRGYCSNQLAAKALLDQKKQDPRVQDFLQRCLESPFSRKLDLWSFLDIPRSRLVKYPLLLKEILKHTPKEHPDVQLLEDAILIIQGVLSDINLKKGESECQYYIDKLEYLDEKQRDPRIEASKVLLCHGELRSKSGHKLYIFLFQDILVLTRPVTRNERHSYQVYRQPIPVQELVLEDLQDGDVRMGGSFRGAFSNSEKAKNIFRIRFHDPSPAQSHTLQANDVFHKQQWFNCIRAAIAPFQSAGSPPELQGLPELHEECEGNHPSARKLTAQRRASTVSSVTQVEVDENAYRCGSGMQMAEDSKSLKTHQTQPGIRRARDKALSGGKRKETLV
UniProt Q6ZRQ5: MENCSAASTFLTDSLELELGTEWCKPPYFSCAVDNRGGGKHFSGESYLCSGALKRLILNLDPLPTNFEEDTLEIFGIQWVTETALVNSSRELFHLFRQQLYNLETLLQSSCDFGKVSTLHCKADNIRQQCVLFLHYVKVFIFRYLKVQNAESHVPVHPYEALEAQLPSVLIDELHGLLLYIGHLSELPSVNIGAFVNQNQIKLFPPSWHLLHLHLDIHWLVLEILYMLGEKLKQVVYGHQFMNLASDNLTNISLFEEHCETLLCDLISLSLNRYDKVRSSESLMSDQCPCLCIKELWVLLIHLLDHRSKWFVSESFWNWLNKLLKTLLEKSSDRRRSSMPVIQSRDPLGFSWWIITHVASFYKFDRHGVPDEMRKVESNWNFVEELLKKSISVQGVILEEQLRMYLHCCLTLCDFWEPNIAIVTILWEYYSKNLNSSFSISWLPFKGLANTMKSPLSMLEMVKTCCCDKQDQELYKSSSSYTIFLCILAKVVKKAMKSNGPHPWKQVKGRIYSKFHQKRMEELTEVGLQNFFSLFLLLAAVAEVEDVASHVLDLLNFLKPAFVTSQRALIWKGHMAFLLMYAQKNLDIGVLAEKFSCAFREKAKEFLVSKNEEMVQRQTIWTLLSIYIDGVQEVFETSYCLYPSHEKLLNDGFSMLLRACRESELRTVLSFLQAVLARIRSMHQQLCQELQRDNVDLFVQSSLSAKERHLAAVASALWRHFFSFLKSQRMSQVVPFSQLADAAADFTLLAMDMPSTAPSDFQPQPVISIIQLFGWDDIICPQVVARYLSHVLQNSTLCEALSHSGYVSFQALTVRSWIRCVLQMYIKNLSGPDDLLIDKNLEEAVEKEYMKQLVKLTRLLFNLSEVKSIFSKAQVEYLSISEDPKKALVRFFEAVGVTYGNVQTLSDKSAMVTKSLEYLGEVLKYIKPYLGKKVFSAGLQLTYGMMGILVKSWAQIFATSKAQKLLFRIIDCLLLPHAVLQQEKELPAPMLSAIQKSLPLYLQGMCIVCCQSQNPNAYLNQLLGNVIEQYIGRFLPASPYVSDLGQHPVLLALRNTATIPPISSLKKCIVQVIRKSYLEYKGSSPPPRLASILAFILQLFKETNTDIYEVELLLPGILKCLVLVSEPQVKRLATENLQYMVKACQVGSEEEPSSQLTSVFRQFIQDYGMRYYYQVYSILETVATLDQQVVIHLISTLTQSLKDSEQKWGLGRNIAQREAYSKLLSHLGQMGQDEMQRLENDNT
UniProt Q7Z417: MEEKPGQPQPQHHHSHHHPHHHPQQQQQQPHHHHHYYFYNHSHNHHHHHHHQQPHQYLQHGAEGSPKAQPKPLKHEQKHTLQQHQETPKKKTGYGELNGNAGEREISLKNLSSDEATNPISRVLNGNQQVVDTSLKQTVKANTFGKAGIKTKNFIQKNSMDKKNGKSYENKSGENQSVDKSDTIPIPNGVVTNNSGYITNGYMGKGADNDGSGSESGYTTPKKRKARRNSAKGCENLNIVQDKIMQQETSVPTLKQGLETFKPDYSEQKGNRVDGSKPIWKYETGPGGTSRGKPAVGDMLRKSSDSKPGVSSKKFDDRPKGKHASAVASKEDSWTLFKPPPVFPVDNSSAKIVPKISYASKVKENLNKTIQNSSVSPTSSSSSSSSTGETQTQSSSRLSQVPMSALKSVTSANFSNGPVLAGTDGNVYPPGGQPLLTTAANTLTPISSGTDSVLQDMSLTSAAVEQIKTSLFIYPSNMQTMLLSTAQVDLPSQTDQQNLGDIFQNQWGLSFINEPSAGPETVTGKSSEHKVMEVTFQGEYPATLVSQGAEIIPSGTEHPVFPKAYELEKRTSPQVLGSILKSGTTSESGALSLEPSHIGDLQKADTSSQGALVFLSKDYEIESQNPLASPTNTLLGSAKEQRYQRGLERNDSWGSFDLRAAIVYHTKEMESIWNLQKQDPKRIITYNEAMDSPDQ
UniProt Q86T23: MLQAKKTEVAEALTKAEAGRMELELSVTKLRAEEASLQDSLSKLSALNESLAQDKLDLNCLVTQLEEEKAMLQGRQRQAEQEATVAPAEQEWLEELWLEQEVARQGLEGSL
UniProt Q7Z3C6: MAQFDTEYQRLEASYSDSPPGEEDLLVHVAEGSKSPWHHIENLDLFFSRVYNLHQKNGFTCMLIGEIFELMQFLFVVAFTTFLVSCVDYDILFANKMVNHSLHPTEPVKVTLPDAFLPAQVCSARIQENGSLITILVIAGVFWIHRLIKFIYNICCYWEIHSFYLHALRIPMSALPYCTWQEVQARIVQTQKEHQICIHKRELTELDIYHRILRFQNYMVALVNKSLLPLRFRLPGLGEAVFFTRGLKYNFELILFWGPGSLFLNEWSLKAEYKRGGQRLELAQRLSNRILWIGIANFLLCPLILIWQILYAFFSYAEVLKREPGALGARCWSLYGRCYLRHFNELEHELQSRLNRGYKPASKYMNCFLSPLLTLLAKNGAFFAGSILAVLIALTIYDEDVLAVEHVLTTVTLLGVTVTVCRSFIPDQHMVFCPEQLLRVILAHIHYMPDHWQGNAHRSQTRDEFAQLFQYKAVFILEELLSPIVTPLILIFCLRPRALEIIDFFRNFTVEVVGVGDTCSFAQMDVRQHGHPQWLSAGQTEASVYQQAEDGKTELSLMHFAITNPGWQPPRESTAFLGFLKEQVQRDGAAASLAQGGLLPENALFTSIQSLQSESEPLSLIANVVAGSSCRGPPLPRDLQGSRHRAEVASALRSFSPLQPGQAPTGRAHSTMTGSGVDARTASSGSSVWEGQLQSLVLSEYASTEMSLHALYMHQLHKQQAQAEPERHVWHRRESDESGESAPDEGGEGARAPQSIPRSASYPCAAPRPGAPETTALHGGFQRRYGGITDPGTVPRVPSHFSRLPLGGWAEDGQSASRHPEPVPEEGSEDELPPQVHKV
UniProt Q7L2H7, whole entry: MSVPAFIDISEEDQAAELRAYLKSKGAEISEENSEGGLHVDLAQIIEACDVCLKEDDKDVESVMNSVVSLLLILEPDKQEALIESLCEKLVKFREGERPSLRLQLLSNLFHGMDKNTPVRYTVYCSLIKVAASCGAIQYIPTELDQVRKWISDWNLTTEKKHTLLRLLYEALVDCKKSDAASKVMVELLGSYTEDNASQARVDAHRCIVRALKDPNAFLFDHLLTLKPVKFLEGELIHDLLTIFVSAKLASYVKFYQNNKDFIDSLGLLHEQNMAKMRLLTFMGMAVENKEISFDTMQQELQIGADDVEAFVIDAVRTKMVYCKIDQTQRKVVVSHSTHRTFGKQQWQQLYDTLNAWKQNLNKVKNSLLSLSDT

compound: CN[C@@H]1C[C@H]2O[C@@](C)([C@@H]1OC)n1c3ccccc3c3c4c(c5c6ccccc6n2c5c31)C(=O)NC4 [staurosporine]; assay: log2 fold change of tryptic peptide abundance, ligand vs vehicle (limited proteolysis) (log2 ratio); higher = more trypsin-susceptible (destabilized); conditions: ligand concentration: 20 uM; sample: K562 cleared lysate; digestion: 4 min, 22 C (HT-PELSA RT4min, Orbitrap Astral)

Target | log2 fold change
CNTRL (peptide sequence: QTEGTLHSLRR, peptide start residue: 2269) (UniProt Q7Z7A1) | 0.569
UniProt Q7Z4H8 (peptide sequence: TLSCPTKEPQIAK, peptide start residue: 153) | -0.152
ANKRD13D (peptide sequence: RGQQEEEDLQR, peptide start residue: 586) (UniProt Q6ZTN6) | 0.115
ZFYVE16 (peptide sequence: SLDLKDNDVIQDSSSALHVSSK, peptide start residue: 348) (UniProt Q7Z3T8) | -0.368
UniProt Q6ZTW0 (peptide sequence: AGALFQLLEDSAAAVADRR, peptide start residue: 198) | -0.19
UniProt Q86UD0 (peptide sequence: HTIASGVDCGLLK, peptide start residue: 218) | -0.436
DHX32 (peptide sequence: QTVVQLALR, peptide start residue: 121) (UniProt Q7L7V1) | 0.507
RAI1 (peptide sequence: SCTAPTAQPHDRPLTASSSLAPGQR, peptide start residue: 238) (UniProt Q7Z5J4) | -0.215
ATG4D (peptide sequence: RPSSEDFVFL, peptide start residue: 465) (UniProt Q86TL0) | 0.218
MBOAT2 (peptide sequence: KNTHENIQLSQSK, peptide start residue: 472) (UniProt Q6ZWT7) | 0.865
LIN28B (peptide sequence: EGEPVEFTFKK, peptide start residue: 79) (UniProt Q6ZN17) | -0.111
UniProt Q7RTT3 (peptide sequence: KYEAMTK, peptide start residue: 54) | 0.576
CEP68 (peptide sequence: AHQPQASDANREPVAER, peptide start residue: 78) (UniProt Q76N32) | -0.0618
TEDC2 (peptide sequence: LSAVEVEAEAGR, peptide start residue: 258) (UniProt Q7L2K0) | 0.712
UniProt Q7Z4V5 (peptide sequence: REQEEELRR, peptide start residue: 333) | 0.694
MCM10 (peptide sequence: KKIQTTLSNLVVK, peptide start residue: 481) (UniProt Q7L590) | -1.34
PABPN1 (peptide sequence: TTNYNSSRSR, peptide start residue: 270) (UniProt Q86U42) | -0.766
UniProt Q86UQ0 (peptide sequence: GFIVESVLR, peptide start residue: 284) | -0.315
EMSY (peptide sequence: ITTIPMTSKPNVIVVQK, peptide start residue: 567) (UniProt Q7Z589) | 0.314

Target | log2 fold change
DPP9 (peptide sequence: EALLLLSWK, peptide start residue: 98) (UniProt Q86TI2) | -0.0953
UniProt Q765P7 (peptide sequence: VGSHEQPSGATLQR, peptide start residue: 381) | -0.123
NET1 (peptide sequence: VTSLANLISPVR, peptide start residue: 98) (UniProt Q7Z628) | 0.416
UniProt Q7Z2T5 (peptide sequence: AEASGCRRW, peptide start residue: 725) | 0.835
CPEB2 (peptide sequence: EFHKPLVK, peptide start residue: 708) (UniProt Q7Z5Q1) | 0.473
DNAH12 (peptide sequence: KENELMAK, peptide start residue: 601) (UniProt Q6ZR08) | 0.0226
TAOK1 (peptide sequence: HNLEQDLVREELNKR, peptide start residue: 627) (UniProt Q7L7X3) | -0.28
YRDC (peptide sequence: SEAKPLAVCLGR, peptide start residue: 113) (UniProt Q86U90) | 0.14
UniProt Q7L804 (peptide sequence: VMEETPSILR, peptide start residue: 488) | 0.624
GPRIN1 (peptide sequence: VVPLSLEK, peptide start residue: 710) (UniProt Q7Z2K8) | 0.322
UniProt Q6ZRQ5 (peptide sequence: SPLSMLEMVK, peptide start residue: 454) | 0.0454
NUFIP2 (peptide sequence: NLSSDEATNPISR, peptide start residue: 110) (UniProt Q7Z417) | -0.486
CROCCP2 (peptide sequence: LRAEEASLQDSLSK, peptide start residue: 727) (UniProt Q86T23) | 0.151
ATG9A (peptide sequence: PGAPETTALHGGFQR, peptide start residue: 769) (UniProt Q7Z3C6) | 0.197
UniProt Q7L2H7 (peptide sequence: WISDWNLTTEKK, peptide start residue: 150) | 0.414
RNF111 (peptide sequence: ENQGILGLR, peptide start residue: 111) (UniProt Q6ZNA4) | 0.389
USP54 (peptide sequence: WGPARPGSHLLEQHPR, peptide start residue: 638) (UniProt Q70EL1) | -0.543
IQGAP3 (peptide sequence: GQSALQEILGK, peptide start residue: 1048) (UniProt Q86VI3) | 0.242

An excerpt of these results, in CSV form.
Target,log2 fold change
"UniProt Q86UQ0 (peptide sequence: GFIVESVLR, peptide start residue: 284)",-0.315
"EMSY (peptide sequence: ITTIPMTSKPNVIVVQK, peptide start residue: 567) (UniProt Q7Z589)",0.314
"DPP9 (peptide sequence: EALLLLSWK, peptide start residue: 98) (UniProt Q86TI2)",-0.0953
"UniProt Q765P7 (peptide sequence: VGSHEQPSGATLQR, peptide start residue: 381)",-0.123
"NET1 (peptide sequence: VTSLANLISPVR, peptide start residue: 98) (UniProt Q7Z628)",0.416
"UniProt Q7Z2T5 (peptide sequence: AEASGCRRW, peptide start residue: 725)",0.835
"CPEB2 (peptide sequence: EFHKPLVK, peptide start residue: 708) (UniProt Q7Z5Q1)",0.473
"DNAH12 (peptide sequence: KENELMAK, peptide start residue: 601) (UniProt Q6ZR08)",0.0226
"TAOK1 (peptide sequence: HNLEQDLVREELNKR, peptide start residue: 627) (UniProt Q7L7X3)",-0.28
